Measured values: PMC10630337, “Transcriptional reprogramming by mutated IRF4 in lymphoma”
Substitutions are numbered along the chain they refer to. For some assays here: Weaker means in comparison with the reference protein, sequence or condition of that experiment. For some assays here: Results from cells or extracts need not show a direct contact. For some assays here: No signal at the amounts used counts as a negative. For some assays here: Where a protein sequence is shown, tags need not be part of it. For some assays here: For at least one entry, the source does not settle the construct or the ends of the probe. For some assays here: At least one verdict rests on a figure or table, not on a statement of the authors.

Columns and labels:
Test in all cases: EMSA
[1] = tested on: IRF4-C99R + JUNB + BATF; settings: EMSA: 10 mM HEPES pH 7.9, 70 mM KCl, 5 mM DTT, 1 mM EDTA, 2.5 mM MgCl2, 4% Ficoll, 0.5 mg/ml BSA, 0.1 ug/ml poly(dI-dC), 3-5 ug nuclear extract, temperature not stated, protein in a lysate after overexpression, protein details: HA,FLAG, label: 32P-dCTP Klenow end label
[2] = tested on: IRF4-WT + JUNB + BATF; settings: EMSA: 10 mM HEPES pH 7.9, 70 mM KCl, 5 mM DTT, 1 mM EDTA, 2.5 mM MgCl2, 4% Ficoll, 0.5 mg/ml BSA, 0.1 ug/ml poly(dI-dC), 3-5 ug nuclear extract, temperature not stated, protein in a lysate after overexpression, protein details: HA,FLAG, label: 32P-dCTP Klenow end label
[3] = tested on: IRF4-WT + JUNB + BATF3; settings: EMSA: 10 mM HEPES pH 7.9, 70 mM KCl, 5 mM DTT, 1 mM EDTA, 2.5 mM MgCl2, 4% Ficoll, 0.5 mg/ml BSA, 0.1 ug/ml poly(dI-dC); 3-5 ug nuclear extract; temperature not stated; protein in a lysate after overexpression; protein details: HA,FLAG; label: 32P-dCTP Klenow end label
[4] = tested on: IRF4-C99R + JUNB + BATF3; settings: EMSA: 10 mM HEPES pH 7.9, 70 mM KCl, 5 mM DTT, 1 mM EDTA, 2.5 mM MgCl2, 4% Ficoll, 0.5 mg/ml BSA, 0.1 ug/ml poly(dI-dC); 3-5 ug nuclear extract; temperature not stated; protein in a lysate after overexpression; protein details: HA,FLAG; label: 32P-dCTP Klenow end label
[5] = tested on: IRF4-C99R + c-JUN + BATF; settings: EMSA: 10 mM HEPES pH 7.9, 70 mM KCl, 5 mM DTT, 1 mM EDTA, 2.5 mM MgCl2, 4% Ficoll, 0.5 mg/ml BSA, 0.1 ug/ml poly(dI-dC); 3-5 ug nuclear extract; temperature not stated; protein in a lysate after overexpression; protein details: HA,FLAG; label: 32P-dCTP Klenow end label
[6] = tested on: IRF4-WT + c-JUN + BATF; settings: EMSA: 10 mM HEPES pH 7.9, 70 mM KCl, 5 mM DTT, 1 mM EDTA, 2.5 mM MgCl2, 4% Ficoll, 0.5 mg/ml BSA, 0.1 ug/ml poly(dI-dC); 3-5 ug nuclear extract; temperature not stated; protein in a lysate after overexpression; protein details: HA,FLAG; label: 32P-dCTP Klenow end label
[7] = tested on: IRF4-C99R S104T + JUNB + BATF; settings: EMSA: 10 mM HEPES pH 7.9, 70 mM KCl, 5 mM DTT, 1 mM EDTA, 2.5 mM MgCl2, 4% Ficoll, 0.5 mg/ml BSA, 0.1 ug/ml poly(dI-dC), temperature not stated, protein in a lysate after overexpression, protein details: HA,FLAG, label: 32P-dCTP Klenow end label
[8] = target: T1, IRF4-WT (human) (UniProt Q15306); settings: EMSA: 10 mM HEPES pH 7.9, 70 mM KCl, 5 mM DTT, 1 mM EDTA, 2.5 mM MgCl2, 4% Ficoll, 0.5 mg/ml BSA, 0.1 ug/ml poly(dI-dC); 3-5 ug nuclear extract; temperature not stated; protein in a lysate after overexpression; residues 1-451; protein details: HA; label: 32P-dCTP Klenow end label
T1 sequence (looked up): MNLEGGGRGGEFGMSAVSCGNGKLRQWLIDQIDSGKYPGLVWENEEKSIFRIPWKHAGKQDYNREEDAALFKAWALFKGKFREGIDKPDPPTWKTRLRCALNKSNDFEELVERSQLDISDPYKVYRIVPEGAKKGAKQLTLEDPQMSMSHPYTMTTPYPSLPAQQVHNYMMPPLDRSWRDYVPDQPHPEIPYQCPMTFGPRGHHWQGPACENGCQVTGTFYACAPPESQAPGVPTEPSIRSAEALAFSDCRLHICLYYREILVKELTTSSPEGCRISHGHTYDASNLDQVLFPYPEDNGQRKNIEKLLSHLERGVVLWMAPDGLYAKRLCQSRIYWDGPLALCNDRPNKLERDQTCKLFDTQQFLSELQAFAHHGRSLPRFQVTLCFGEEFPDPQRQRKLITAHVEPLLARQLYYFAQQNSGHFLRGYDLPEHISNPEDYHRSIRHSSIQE

[9] = target: T2, IRF4-C99R S104T (human) (UniProt Q15306); settings: EMSA: 10 mM HEPES pH 7.9, 70 mM KCl, 5 mM DTT, 1 mM EDTA, 2.5 mM MgCl2, 4% Ficoll, 0.5 mg/ml BSA, 0.1 ug/ml poly(dI-dC); 3-5 ug nuclear extract; temperature not stated; protein in a lysate after overexpression; residues 1-451; protein details: HA; label: 32P-dCTP Klenow end label
T2 sequence (looked up): T1 sequence (looked up) with C99R, S104T

[10] = target: T3, IRF4-C99R (human) (UniProt Q15306); settings: EMSA: 10 mM HEPES pH 7.9, 70 mM KCl, 5 mM DTT, 1 mM EDTA, 2.5 mM MgCl2, 4% Ficoll, 0.5 mg/ml BSA, 0.1 ug/ml poly(dI-dC); 3-5 ug nuclear extract; temperature not stated; protein in a lysate after overexpression; residues 1-451; protein details: HA; label: 32P-dCTP Klenow end label
T3 sequence (looked up): T1 sequence (looked up) with C99R

[11] = tested on: IRF4-WT DBD + JUNB DBD + BATF DBD; settings: C99R much stronger, short or long probe not certain; EMSA: 10 mM HEPES pH 7.9, 70 mM KCl, 5 mM DTT, 1 mM EDTA, 2.5 mM MgCl2, 4% Ficoll, 0.5 mg/ml BSA, 0.1 ug/ml poly(dI-dC); 3-5 ug nuclear extract; temperature not stated; recombinant protein; label: 32P-dCTP Klenow end label

Sequence	binding result [1]	binding result [2]	binding result [5]	binding result [6]	other results
AGCTAATGCAGGAATGACTCACTTG / AGCTCAAGTGAGTCATTCCTGCATT [GATA3Peak_3]	binds	no binding			
AGCTACTGAATGAGTCAGAGAGGCCCAAA / AGCTTTTGGGCCTCTCTGACTCATTCAGT [GATA3Peak_1]	binds	no binding			binding result [3]: no binding; binding result [4]: binds
AGCTAGTCATAAATGAGTCATGGC / AGCTGCCATGACTCATTTATGACT [GATA3Peak_2]	binds	no binding			binding result [3]: no binding; binding result [4]: binds
AGCTCTTGCCTTAGAGGTTTCGGGATGACTAATACTGTA / AGCTTACAGTATTAGTCATCCCGAAACCTCTAAGGCAAG [AICE1 (Ctla4)]		binds	no binding	binds	binding result ([1]; complete loss of IRF4 complex): no binding; binding result ([7]; 3-5 ug nuclear extract): no binding
AGCTGCTTTTGCTTTCACTTTGACTGGCCTGGAGACAATGAGTT / AGCTAACTCATTGTCTCCAGGCCAGTCAAAGTGAAAGCAAAAGC [AICE1 (IL12Rb)]			no binding		binding result ([1]; complete loss of IRF4 complex): no binding; binding result ([7]; 3-5 ug nuclear extract): no binding; binding result ([2]; weak-affinity motif): binds
AGCTGGGAAAGGGAAACCGAAACTG / AGCTCAGTTTCGGTTTCCCTTTCCC [ISRE (ISG15)]					binding result [8]: binds; binding result [9]: no binding; binding result [10]: no binding
AGCTTAGCGCAGAAATGAGTCAGAGATCAAAGAAG / AGCTCTTCTTTGATCTCTGACTCATTTCTGCGCTA [AICE2-4C (Bcl11b)]		no binding	binds	no binding	binding result ([1]; strong): binds
AGCTTAGTGCAGAAATGAGTCAGAGATCAAAGAAG / AGCTCTTCTTTGATCTCTGACTCATTTCTGCACTA [AICE2 (Bcl11b)]		binds	binds	binds	binding result [11]: binds more weakly; binding result ([1]; enhanced vs WT): binds; binding result ([7]; similar to C99R, 3-5 ug nuclear …): binds
AGCTTAGTGCATTTCTGAGTCAGAGATCAAAGAAG / AGCTCTTCTTTGATCTCTGACTCAGAAATGCACTA [AICE2FLIP (AICE2 5'TTTC)]	binds	no binding			
AGTGCATACATGAGTCAGAGATC / AGGATCTCTGACTCATGTATGCA [AICE2 (Bcl11b) short, IRF motif tAcA]					binding result ([1]; complete loss of IRF4 composite complex): no binding
